No constants are given. Whether binding was seen depends on the method and setting. Some results given as binding are weak or reduced against the parent protein; the word gives no strength.
Target: alpha-CGRP (Bachem) standard (UniProt P06881)
Assay: MSD sandwich immunoassay; CGRP standard spiked into matrices; biotin-Antibody I capture, Sulfo-Tag CA11 detection

Chains of the proteins cited; added tags and fusions are not shown. Residues count along the entry.
UniProt P06881, residues 83-119: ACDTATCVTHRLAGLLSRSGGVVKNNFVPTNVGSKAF

binding: binds
B1: CA11 antibody (mouse IgG1/kappa) (antibody, V domains shown)
VH: EVQLQQSGPELVKPGASVKMSCKASGYTFTRSVMHWVKQKPGQGLEWIGYINPYNDGTKYNEKFKGKATLTSDKSSSTAYMELSSLTSEDSAVYYCAKSGNDGYWGQGTTLTVSS
VL: EIVLTQSPTTMAASPGEKITITCSASSSISSIYLHWYQQKPGFSPKVLIYRAKNLASGVPARFSGSGSGTSYSLTIGTMEAEDVATYYCQQGSTIPFTFGSGTKLEIKR

From US20190031748A1
